Data published in patent publication US20200181278A1 (MITSUBISHI TANABE PHARMA, published 2020).
Positions count from the first letter of the chain named. Results are given in words; binding and its absence hold for the method and conditions named. Some entries that bind do so weakly or less than the wild type.

T1: human CD138 (syndecan-1) on cells (human) (UniProt P18827)
T1 sequence: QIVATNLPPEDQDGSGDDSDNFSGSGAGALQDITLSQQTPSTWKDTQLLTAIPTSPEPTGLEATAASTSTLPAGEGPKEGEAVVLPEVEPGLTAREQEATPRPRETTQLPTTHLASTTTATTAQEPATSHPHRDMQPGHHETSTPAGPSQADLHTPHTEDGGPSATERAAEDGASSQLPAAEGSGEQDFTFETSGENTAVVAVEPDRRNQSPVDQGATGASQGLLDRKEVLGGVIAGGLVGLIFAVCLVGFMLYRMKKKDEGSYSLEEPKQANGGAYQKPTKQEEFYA

B1: F6 f1ka-rep (antibody, V domains shown)
VH: QVQLQQSGAEVVKPGASVKLSCKASGYTFTSYYLYWVKKAPGQGLDWIGEIYPRSGGTNINEKFLSRVTLTADTSTSTAYMDLSSLTSEDTAVYYCTRSLLYWGQGTTLTVSS
VL: DVVMTQTPLSLSVTPGQPASISCKSSQSLLASDGKTYLNWLLQRPGQSPKRLIYLVSKLDSGVPNRFSGSGSGTDFTLQISRVEAEDVGLYYCMQGAHFPFTFGGGTKVEIKR
B2: F6 f1kf-rep (antibody, V domains shown)
VH: B1 VH
VL: B1 VL with T7S, P15L, L42Q, K50R, M94W, G105S, V109L
B3: F6 f1ks-rep (antibody, V domains shown)
VH: B1 VH
VL: B1 VL with M94W, G105S, V109L
B4: F6 f2kf-rep (antibody, V domains shown)
VH: B1 VH with L70I, T74E, A79V, D82Q, T91S
VL: B1 VL with T7S, P15L, L42Q, K50R, M94W, G105S, V109L
B5: F6 akf-rep (antibody, V domains shown)
VH: B1 VH with Q5V, I60Y, N61A, L65Q, S66G, M81L, D82E
VL: B1 VL with T7S, P15L, L42Q, K50R, M94W, G105S, V109L
B6: F6 aks-rep (antibody, V domains shown)
VH: B1 VH with Q5V, I60Y, N61A, L65Q, S66G, M81L, D82E
VL: B1 VL with M94W, G105S, V109L
B7: F6 cka-rep (antibody, V domains shown)
VH: B1 VH with Q5V, M81L, D82E
VL: B1 VL
B8: F6 ckf-rep (antibody, V domains shown)
VH: B1 VH with Q5V, M81L, D82E
VL: B1 VL with T7S, P15L, L42Q, K50R, M94W, G105S, V109L
B9: F6 cks-rep (antibody, V domains shown)
VH: B1 VH with Q5V, M81L, D82E
VL: B1 VL with M94W, G105S, V109L

molecular target: T1, human CD138 (syndecan-1) on cells (human); test: FACS on RT112/84 bladder cancer cells (endogenous human CD138)

| Binder | binding |
| --- | --- |
| B1 | binds |
| B2 | binds |
| B3 | binds |
| B4 | binds |
| B5 | binds |
| B6 | binds |
| B7 | binds |
| B8 | binds |
| B9 | binds |

molecular target: T1, human CD138 (syndecan-1) on cells (human); test: FACS on KMS-11 multiple myeloma cells (endogenous human CD138)

| Binder | binding |
| --- | --- |
| B1 | binds |
| B2 | binds |
| B3 | binds |
| B4 | binds |
| B5 | binds |
| B6 | binds |
| B7 | binds |
| B8 | binds |
| B9 | binds |
